Among the data in publication PMC8211685 are binding values, retold here.

Amino acid sequences for entries named in this document (tags omitted). Residues count along the entry.
UniProt Q94AQ8, residues 18-348: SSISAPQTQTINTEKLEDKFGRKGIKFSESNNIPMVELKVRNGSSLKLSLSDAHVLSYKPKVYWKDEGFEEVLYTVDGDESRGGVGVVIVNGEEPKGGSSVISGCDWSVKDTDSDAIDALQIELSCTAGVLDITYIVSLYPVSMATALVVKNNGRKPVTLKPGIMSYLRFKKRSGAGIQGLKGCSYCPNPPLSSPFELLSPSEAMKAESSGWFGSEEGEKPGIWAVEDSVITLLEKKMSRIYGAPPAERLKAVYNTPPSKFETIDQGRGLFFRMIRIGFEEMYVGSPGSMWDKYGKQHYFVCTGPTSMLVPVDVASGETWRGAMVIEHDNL
UniProt Q9LU21, residues 49-204: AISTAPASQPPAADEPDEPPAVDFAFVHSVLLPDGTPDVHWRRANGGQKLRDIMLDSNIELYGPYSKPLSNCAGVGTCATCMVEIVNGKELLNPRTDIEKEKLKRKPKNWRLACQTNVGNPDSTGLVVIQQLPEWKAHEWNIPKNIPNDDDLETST

These are yes or no findings as the source states them, for the method shown. Binding seen in cells or lysates may run through a third protein. Some entries that bind do so weakly or less than the wild type.

The assay addresses T1, NDH-dependent Cyclic Electron Flow 5 (NDF5) (Arabidopsis thaliana (endogenous in leaves)) (UniProt Q9C503).
T1 sequence: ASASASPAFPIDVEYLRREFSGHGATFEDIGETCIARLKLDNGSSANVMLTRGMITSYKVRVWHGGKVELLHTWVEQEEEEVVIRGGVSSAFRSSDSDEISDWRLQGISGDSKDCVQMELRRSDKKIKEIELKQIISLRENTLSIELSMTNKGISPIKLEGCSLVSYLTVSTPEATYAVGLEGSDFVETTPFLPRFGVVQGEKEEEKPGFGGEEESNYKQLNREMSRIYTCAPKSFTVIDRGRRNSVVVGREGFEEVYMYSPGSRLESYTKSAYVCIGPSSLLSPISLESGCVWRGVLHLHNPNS
In words: co-sedimentation; sucrose density gradient (5–40%) ultracentrifugation, 24 h at 150,000g, of chloroplast membranes solubilized with 0.9% n-dodecyl-β-D-maltoside; 25 mM MES-NaOH pH 6.8, 5 mM MgCl2, 10 mM NaCl, 0.02% n-dodecyl-β-D-maltoside; 30 fractions, immunoblots; Arabidopsis wild type and pnsb1, pnsb4, pnsb5, pnsl3, crr3 and lhca6 mutants. Background: A western blot detects proteins with antibodies after separation by electrophoresis.

In the case of PnsB2 (from UniProt Q94AQ8 18-348), the binding entry is “binds”.
The same measure for PnsB3 (from UniProt Q9LU21 49-204): “binds”.
